Some of these results come from one statement about several compounds together.
Tested on: rat hepatocytes in coculture with rat biliary epithelial cells (RLEC)
Assay: Hepatocyte DNA synthesis by BrdU labeling in rat hepatocyte/RLEC coculture
Format: cell-based
Details: 7 day-old cocultures exposed for 4 days
Procedure: Freshly isolated hepatocytes are seeded on plastic dishes at 7×10^4 cells per cm2 in a mixture of 75% minimal essential medium and 25% 199 medium (Eurobio), supplemented with 2 mM L-glutamine, 0,1% bovine serum albumin (BSA, Sigma), 100 μg/ml streptomycin, 100 Ul/ml penicillin, 5 μg/ml bovine insulin (Sigma), 1.4×10^-6 M hydrocortisone hemisuccinate (Roussel) and 10% fetal calf serum (Hyclone). This medium is called “basal medium”.
After cell adhesion, approximately 4 hours after seeding, RLEC, previously trypsinized, are added on spread hepatocytes at 2×10^5 cells per cm2 in basal medium.
Twenty four hours later, the medium is removed and replaced by a medium supplemented in 7×10^-5 M hydrocortisone hemisuccinate, which promotes hepatocyte differentiation and survival. This medium is renewed everyday for 4 days. Then, the concentration of hydrocortisone hemisuccinate is decreased to 7×10^-6 M for 2 days.
7 day-old cocultures are stimulated with human recombinant EGF (50 ng/ml, Promega) and human recombinant TNF-alpha (10 ng/ml, Promokine) in basal medium for 3 to 10 days. […]
Hepatocyte DNA synthesis is measured by using BrdU (bromodeoxyuridine) labeling. BrdU incorporation in DNA is detected by immunohistochemistry using the Cell Proliferation Kit (Amersham). The number of labeled hepatocytes is determined (5 fields per dish) in order to calculate the percentage of BrdU incorporation.

In the case of TNFα, the BrdU labeled hepatocytes is reported as 3-4%.

From patent US20050244959A1, “Methods for inducing active hepatocytes proliferation, kits using such methods and uses of said kits” (priority 2004, published 2005)
